## Screening data, single-dose tests

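Growth of Mycobacterium tuberculosis over 3 days (7H9 medium with glucose and tyloxapol); the read-out is not stated. Tested at 500 µM. Higher reads as more growth inhibition (inferred: compounds with an IC50 in retests scored well above the rest). About 18,000 compounds were tested under these conditions; 7.9% (about 1,400) showed 50% or more at least once.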

Results are given as percent effect.
How 0% and 100% were set is not recorded. Most values in the screen are low, and negative values occur.
Compounds were drawn at random from those tested, without regard to their results.

- Cc1nc2ccc(C(=O)N[C@H]3CC[C@H]3N)cc2nc1C | 3.353%
- O=C1CCC(O)CN1 (centres undefined) | -10.7%
- Cc1ccc2c(c1)CC(=O)N2C | 4.351%
- Cc1ccc(C(=O)N2CCCC2(C)C)c(C)n1 | 7.342%
- OCc1ccc(Cl)cc1-n1cncn1 | 23.44%
- Cc1ccc(C(CN)N2CCOCC2)o1 (centres undefined) | 34.14%
- Cc1ccc2c(c1)N(S(=O)(=O)N1CCCC1)CC(C)O2 (centres undefined) | -13.2%
- CC(=O)N1CCC(CCOc2cccnc2)CC1 | 27.21%
- CCCC(=O)n1nc(-c2ccccc2)nc1N | 2.31%
- CC(C)CC(=O)NCCc1ccc(S(N)(=O)=O)s1 | 3.333%
- CCN1CCCN(C(=O)c2ccc(C)c(OC)c2)CC1 | 19.28%
- NCC(=O)N1CCN(c2ccc(Cl)cc2)CC1 | 7.508%
- CC(C)C(NC(=O)CS(C)(=O)=O)c1ccccn1 (centres undefined) | 14.45%
- CC(C)COCC(O)Cn1nnc(-c2ccco2)n1 (centres undefined) | 51.54%
- OCC(O)CN1CCCN(Cc2cccnc2)CC1 (centres undefined) | 34.07%
- CNC(=O)COc1ccccc1OC | -6.95%
- CN1CCCN(S(=O)(=O)c2ccccc2)CC1 | 26.16%
- NCCN1C(=O)COc2ccccc21 | 5.535%
- COCCn1c(SCC(=O)NC2CC2)nc(C)c1C | 9.84%
- CS(=O)(=O)c1ccccc1CN | -1.705%
- CC1(O)C(=O)Nc2ccccc21 (centres undefined) | -5.982%
- CCC(CC#N)NC(=O)Cc1cccnc1 (centres undefined) | -0.9862%
- Cc1nc(CN2CCC(CN)CC2)cs1 | 12.64%
- CN1CCN(CC2CCCNC2)CC1 (centres undefined) | -3.131%
- Cc1ccc(S(=O)(=O)NCCN)cc1Cl | 49.45%
- CN1CCN(CC2(CNC(=O)c3ccc[nH]3)CC2)CC1 | 10.18%
- CC1CCN(CC(N)=O)CC1 | -16.97%
- COc1cc(C(=O)NC(C)(C)CC(N)=O)sc1Br | -9.322%
- CC(O)(CCN)c1ccccc1 (centres undefined) | 2.526%
- O=C(c1c(F)cccc1Cl)N1CCNCC1 | 6.897%
- CCc1nsc(N2CCN(CCO)C(=O)C2)n1 | -0.3309%
- O=C1NC[C@H]2NCCC[C@@H]12 | -7.74%

3 of the entries, repeated:

{"compound": "Cc1ccc(C(CN)N2CCOCC2)o1", "stereo": "centres undefined", "Percent Effect": 34.14}
{"compound": "Cc1ccc(C(=O)N2CCCC2(C)C)c(C)n1", "Percent Effect": 7.342}
{"compound": "Cc1ccc2c(c1)CC(=O)N2C", "Percent Effect": 4.351}

The values are deposited in ChEMBL (CHEMBL3988442, “University of Dundee, Small-Polar-MMV Screening Library” (2021)).